Assay results from publication PMC1525168.
Results are given in words; binding and its absence hold for the method and conditions named. Some results given as binding are weak or reduced against the parent protein; the word gives no strength.

T1: GGLO1 (Gerbera hybrida) (UniProt Q9ZS26)
T1 sequence: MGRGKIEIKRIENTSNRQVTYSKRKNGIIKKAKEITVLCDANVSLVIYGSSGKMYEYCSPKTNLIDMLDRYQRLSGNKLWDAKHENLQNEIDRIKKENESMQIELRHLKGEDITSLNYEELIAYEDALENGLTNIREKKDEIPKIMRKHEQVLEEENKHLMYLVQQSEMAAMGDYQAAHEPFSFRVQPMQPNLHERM


Target: T1, GGLO1 (Gerbera hybrida)
Test: two-hybrid; yeast two-hybrid; data not shown; bait and prey not stated

Binder	binding
GDEF1 (protein, UniProt Q9ZS28 1-226) MGRGKIEIKKIENNTNRQVTYSKRRNGIFKKAHELTVLCDAKVSLIMFSNTGKFHEYISPSTTTKKMYDQYQSTVGFDLWSSHYERMKETMKKLKDTNNKLRREIRQRVLGEDFDGLDMNDLTSLEQHMQDSLTLVRERKYHVIKTQTDTCRKRVRNLEQRNGNLRLDYETIHQLDKKYDTGENEGDYESVVAYSNGVSNLYAFCVHPNNIPHGAGYELHDHQHTN	binds
GDEF2 (protein, UniProt Q9ZS27 1-228) MARGKIQIKKIENSTNRQVTYSKRRNGLFKKASELTVLCDAKVSIIMVSCTDKLHEYISPSITTKQFFDQYQKASGIDLWNSHYEKMQEELRQLKEVNRNLRRQIRQRLGDCLEDLGFEEFLDLEKESQEAVYIIRERKLKVIGNKLETSKKKVRSAQDVYKKLMHEFDIRGEDPQYGMIEDGVEYEALYGYPPHISAPRILTLRLQPNHPDNLHAAASDLTTYALLG	binds
